Consider 1 molecule from PMC5448152.

Chains of the proteins cited; added tags and fusions are not shown.
UniProt O77059: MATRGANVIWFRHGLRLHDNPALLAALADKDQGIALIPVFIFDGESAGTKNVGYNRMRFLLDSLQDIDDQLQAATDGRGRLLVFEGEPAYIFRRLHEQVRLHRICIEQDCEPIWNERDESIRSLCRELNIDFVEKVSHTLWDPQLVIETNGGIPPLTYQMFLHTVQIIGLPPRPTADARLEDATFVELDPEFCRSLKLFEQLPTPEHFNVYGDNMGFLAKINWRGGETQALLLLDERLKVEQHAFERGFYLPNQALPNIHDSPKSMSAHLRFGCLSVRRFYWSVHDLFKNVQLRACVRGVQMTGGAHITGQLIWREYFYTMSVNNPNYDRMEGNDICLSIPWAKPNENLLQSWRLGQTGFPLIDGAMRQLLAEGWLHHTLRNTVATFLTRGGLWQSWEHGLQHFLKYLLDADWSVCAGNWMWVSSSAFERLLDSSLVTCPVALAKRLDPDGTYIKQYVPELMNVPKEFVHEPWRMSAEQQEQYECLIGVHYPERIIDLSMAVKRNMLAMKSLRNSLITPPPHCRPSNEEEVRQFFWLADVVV

The target of this experiment is hemagglutinin (HA) tagged CRY (Drosophila melanogaster) (UniProt O77059). Kind of experiment: co-IP; HACRY precipitated with α-HA antibodies from whole head extracts of tim-GAL4 > HACRY flies collected at ZT24 (dark) and ZT24 + 15 min light; Western blot probed with nc82; stronger under light.

These are yes or no findings as the source states them, for the method shown. Binding seen in cells or lysates may run through a third protein. Some binding calls cover weakened binding; strength is not graded here.

B1: BRUCHPILOT (BRP), 170 kDa isoform, endogenous (protein, UniProt A0A0B4K7K9-3 1-1397)
chain: MDNAYVYYKLDEFRLEIQRRDQEILAMAAKMKTLEEQHQRHIAVLKESLCAKEEHYNMLQTDVEEMRARLEEKNRLIEKKTQGTLQTVQERNRLTSELTELKDHMDIKDRKISVLQRKIENLEDLLKEKDNQVDMARARLSAMQAHHSSSEGALTSLEEAIGDKEKQMAQLRDQRDRAEHEKQEERDLHEREVADYKIKLRAAESEVEKLQTRLERAVTERERLEIKLEASQSELGKSKAELEKATCEMGRSSADWESTKQRIARLELENERLKHDLERSQMQLEEQTTLHKTTFGRTTMTTSQELDRAQERADKASAELRRTQAELRVTQSDAERAREEAAALQEKLEKSQGEVYRLKAKLENAQGEQESLRQELEKAQSGVSRIHADRDRAFSEVEKIKEEMERTQATLGKSQLQHEKLQNSLDKAQNEVDHLQDKLDKACTENRRLVLEKEKLTYDYDNLQSQLDKALGQAARMQKERETLSLDTDRIREKLEKTQMERDDAVTEVEILKEKLDKALYASQKLIDEKDTSNKEFEKMLEKYDRAQNEIYRLQSRCDTAEADRARLEVEAERSGLAASKAREDLRKLQDESTRLQEACDRAALQLSRAKECEDNARSELEHSRDRFDKLQTDIRRAQGEKEHFQSELERVTYELERAHAAQTKASASVEAAKEEAAHYAVELEKMRDRYEKSQVELRKLQDTDTFGRETRRLKEENERLREKLDKTLMELETIRGKSQYESESFEKYKDKYEKIEMEVQNMESKLHETSLQLELSKGEVAKMLANQEKQRSELERAHIEREKARDKHEKLLKEVDRLRLQQSSVSPGDPVRASTSSSSALSAGERQEIDRLRDRLEKALQSRDATELEAGRLAKELEKAQMHLAKQQENTESTRIEFERMGAELGRLHDRLEKAEAEREALRQANRSGGAGAAPHPQLEKHVQKLESDVKQLAMEREQLVLQLEKSQEILMNFQKELQNAEAELQKTREENRKLRNGHQVPPVAAPPAGPSPAEFQAMQKEIQTLQQKLQESERALQAAGPQQAQAAAAAGASREEIEQWRKVIEQEKSRADMADKAAQEMHKRIQLMDQHIKDQHAQMQKMQQQMQQQQQAAQQAVQQAAQQQQSAAGAGGADPKELEKVRGELQAACTERDRFQQQLELLVTELEKSKMSNQEQAKQLQTAQQQVQQLQQQVQQLQQQMQQLQQAASAGAGATDVQRQQLEQQQKQLEEVRKQIDNQAKATEGERKIIDEQRKQIDAKRKDIEEKEKKMAEFDVQLRKRKEQMDQLEKSLQTQGGGAAAAGELNKKLMDTQRQLEACVKELQNTKEEHKKAATETERLLQLVQMSQEEQNAKEKTIMDLQQALKIAQAKVKQAQTQQQQQQDAGPAGFLKSFF
For the molecule B1, the binding result is “binds”.
